## Cleaved PARP in drug-treated melanoma cells

Source: doi:10.1371/journal.pone.0140310, primary screening data, rounded.

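Human melanoma cell lines in 1,536-well plates were treated with two drugs together for 72 h, then fixed, stained and imaged. Each value is the cleaved-PARP-positive fraction of nuclei relative to DMSO-treated wells, in %, so that 100 equals the control and higher values mean more apoptosis. Every drug was used at one fixed concentration, the higher of two screened. No replicate spread is given; individual values may be noisy. The marker varies much from line to line, for technical or biological reasons.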
Only some of the drugs and lines screened are listed, without regard to their results.

Drugs:
YM155 (2 nM): COCC[n+]1c2c(n(Cc3cnccn3)c1C)C(=O)c1ccccc1C2=O
crizotinib (1000 nM): C[C@@H](Oc1cc(-c2cnn(C3CCNCC3)c2)cnc1N)c1c(Cl)ccc(F)c1Cl
bexarotene (10000 nM): C=C(c1ccc(C(=O)O)cc1)c1cc2c(cc1C)C(C)(C)CCC2(C)C
cediranib (2000 nM): COc1cc2c(Oc3ccc4[nH]c(C)cc4c3F)ncnc2cc1OCCCN1CCCC1
lestaurtinib (20 nM): C[C@]12O[C@H](C[C@]1(O)CO)n1c3ccccc3c3c4c(c5c6ccccc6n2c5c31)CNC4=O
SNS-032 (50 nM): CC(C)(C)c1cnc(CSc2cnc(NC(=O)C3CCNCC3)s2)o1
L-779450 (1000 nM): Oc1cc(-c2nc(-c3ccccc3)[nH]c2-c2ccncc2)ccc1Cl
vatalanib (10000 nM): Clc1ccc(Nc2nnc(Cc3ccncc3)c3ccccc23)cc1
ENMD-2076 (200 nM): Cc1cc(Nc2cc(N3CCN(C)CC3)nc(/C=C/c3ccccc3)n2)n[nH]1

| Drugs | LB2518-MEL |
|---|---|
| YM155 + SNS-032 | 511 |
| lestaurtinib + ENMD-2076 | 218 |
| L-779450 + vatalanib | 78.6 |
| lestaurtinib + L-779450 | 341 |
| L-779450 + YM155 | 254 |
| vatalanib + crizotinib | 259 |
| YM155 + cediranib | 310 |
| L-779450 + cediranib | 68.7 |
| ENMD-2076 + crizotinib | 188 |
| vatalanib + ENMD-2076 | 140 |
| YM155 + ENMD-2076 | 207 |
| lestaurtinib + vatalanib | 79.0 |
| crizotinib + bexarotene | 56.9 |
| cediranib + crizotinib | 108 |
| crizotinib + L-779450 | 70.8 |
| L-779450 + bexarotene | 37.5 |
| cediranib + lestaurtinib | 64.1 |
| vatalanib + YM155 | 478 |
| SNS-032 + ENMD-2076 | 149 |
| bexarotene + SNS-032 | 156 |
| ENMD-2076 + cediranib | 54.3 |
| vatalanib + SNS-032 | 74.6 |
| SNS-032 + L-779450 | 116 |
| ENMD-2076 + L-779450 | 252 |
| cediranib + SNS-032 | 163 |
| vatalanib + bexarotene | 37.3 |
| crizotinib + SNS-032 | 71.2 |
| bexarotene + lestaurtinib | 204 |
| YM155 + lestaurtinib | 475 |
| cediranib + vatalanib | 187 |
| bexarotene + cediranib | 113 |
| YM155 + bexarotene | 99.0 |